These results are taken from PubChem BioAssay AID2685 (National Center for Advancing Translational Sciences (NCATS), 2010).

A word on the AC50: it is the midpoint of the concentration-response curve, whichever way the signal moves.

The other results are listed elsewhere or left out. Shown are side measurements of this screen, not its main read-out; they come without a call. Compounds called inactive in the main read-out are mostly missing here. Words in brackets tell the shape of the fitted curve; partial curves, single points and poor fits give uncertain potencies.

The assay is described as follows: qHTS Assay for Lipid Storage Modulators in Drosophila S3 Cells.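 On cell number change: cells counted by Cell Tracker Red CMTPX staining in the red channel.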 The following applies: BODIPY lipid droplet fluorescence, 18-24 h; for cell number change: measured here: cell count max response, cells fed with added oleic acid. A digest of the protocol:
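Drosophila S3 cells loaded with oleic acid (400 uM, as added) and compounds at several concentrations; lipid droplets imaged by 488-nm laser-scanning cytometry, 500–530 nm intensity and object ratio to cell channel. Percent activity normalized to 20 uM Triacsin C.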

The mark [1] stands for this setting: measured here: cell number channel AC50, cells fed with added oleic acid.
The mark [2] stands for this setting: measured here: lipid fluorescence (Fed channel) AC50, cells fed with added oleic acid.

On to `Cc1c(CCOC(=O)CC23CC4CC(CC(C4)C2)C3)sc[n+]1CC(=O)c1ccccc1`, for which the cell number change is -56.3%. Besides, the AC50 under setting [1] is 25.9 µM [falling, single point]. The AC50 under setting [2] is 18.4 µM [falling, single point]. On to `COc1ccnc(Oc2ccc(F)cc2)c1C(=O)N/C=N/OCc1ccc(F)cc1Cl`, for which the AC50 under setting [1] was 1.84 µM [rising, partial curve]. For `COC(=O)CN1C(=O)C(O)(CC(=O)c2ccccc2)c2ccccc21` (stereo not drawn), the cell number change was -6.14%. The AC50 under setting [1] is 0.731 µM [falling, partial curve, poor fit]. In addition, the AC50 under setting [2] was 18.4 µM [falling, partial curve, poor fit]. For `CCNc1ccc(C(=O)Nc2ccc3nc(C)sc3c2)cc1[N+](=O)[O-]`, the cell number change is -3.61%. For `S=C(Nc1cccc(Cl)c1)N1CCN(c2ccccn2)CC1`, the cell number change is -6.88%. In addition, the AC50 under setting [2] was 25.9 µM [falling, single point]. With `O=C(O)COn1c(-c2ccccc2)nc2ccc([N+](=O)[O-])cc21`, the cell number change is -9.55%. Besides, the AC50 under setting [1] was 1.46 µM [falling, partial curve, poor fit]. Moreover, the half-maximal activity concentration (AC50) under setting [2] is 1.64 µM [falling, partial curve]. Consider `O=C1CC(c2ccccc2)CC(O)=C1C=NCCc1ccccc1` (stereo not drawn), for which the cell number change came to 26.5%. In addition, under setting [2], the AC50 is 0.326 µM [falling, single point]. Regarding `COc1cccc(C(=O)NC2CCN(C(=O)N3CCCCC3)CC2)c1`, the cell number change is -34%. Moreover, under setting [1], the AC50 was 11.6 µM [falling, partial curve]. Further, the AC50 under setting [2] is 16.4 µM [falling, partial curve, poor fit]. Regarding `CC(C)C(NS(=O)(=O)c1cccc2nsnc12)C(=O)Nc1nccs1` (stereo not drawn), the cell number change is -18.1%. In addition, the AC50 under setting [1] was 0.164 µM [falling, full curve, poor fit]. For the same molecule, the AC50 under setting [2] was 0.731 µM [falling, partial curve, poor fit]. On to `CCC1Cc2c(nc(N)c3c(N)nc(N4CCCCC4)c(C#N)c23)O1` (stereo not drawn), for which the cell number change turned out to be 80.5%. The half-maximal activity concentration (AC50) under setting [1] was 3.26 µM [rising, full curve]. Also, the half-maximal activity concentration (AC50) under setting [2] is 29.1 µM [rising, single point].

Regarding `CSc1nc(-c2ccccc2)nc(NC(C)=O)c1C(C)=O`, the cell number change was determined as 76.9%. In addition, the half-maximal activity concentration (AC50) under setting [1] was 3.26 µM [rising, full curve].

With `O=C(CCl)N1c2ccccc2CCc2ccccc21`, the cell number change is -30.2%. Also, under setting [1], the AC50 is 20.6 µM [falling, single point]. The AC50 under setting [2] was 16.4 µM [falling, partial curve]. Consider `COCCN1Cc2cccc(C(=O)Nc3cccc(C)c3C)c2C1=O`, for which the AC50 is, setting by setting: under setting [1], 1.16 µM [rising, partial curve]; under setting [2], 1.84 µM [rising, partial curve]. Take `Cn1c(=O)[nH]c(=O)c2c1nc(CN1CCOCC1)n2CCCc1ccccc1`: the AC50 under setting [1] is 2.06 µM [rising, partial curve, poor fit]. In the case of `CCCCC(=O)Nc1nc(C)c(-c2csc(Nc3cc(OC)ccc3OC)n2)s1`, the cell number change was -39%. Also, the AC50 under setting [1] was 2.31 µM [falling, full curve, poor fit].

Take `CC(=O)Nc1ccc(NC(=S)NC(=O)/C=C/c2ccccc2)cc1`: the cell number change turned out to be 23%.

As for `O=C(NCc1ccco1)c1cc(C(=O)C2CC2)c[nH]1`, the cell number change stood at 14.7%. Also, the AC50 under setting [2] is 18.4 µM [rising, single point]. As for `O=C(c1cc(-c2ccc(Cl)cc2)nc2ccccc12)N1CCC1`, the cell number change stood at 24.3%. In the case of `CCOC(=O)c1[nH]c2ccccc2c1NC(=S)Nc1cc(C)ccc1C`, the cell number change is 19.7%. Further, the AC50 under setting [2] is 9.2 µM [rising, partial curve]. Take `Cc1nnc(SCC(=O)Nc2ccc(S(=O)(=O)Nc3ccc(Cl)nn3)cc2)s1`: the cell number change was -5.95%. For `COc1ccccc1NC(=O)CSc1ccc2nnc(-c3ccncc3)n2n1`, under setting [2], the AC50 was 5.17 µM [falling, partial curve, poor fit]. For `O=C(Nc1cccc2ccccc12)N1CCOCC1`, the cell number change was 7.89%. Besides, the AC50 under setting [2] is 0.0291 µM [rising, full curve, poor fit]. As to `O=C(C/C=N/OCc1ccc(Cl)cc1)c1cnc(-c2ccccc2)s1`, the cell number change is 25.6%. In addition, under setting [2], the AC50 was 8.2 µM [rising, partial curve]. As to `CCOc1ccc(OCCSc2nc3ccccc3c(=O)[nH]2)cc1`, the cell number change stood at 11.1%.

Take `COc1cc(C(=O)NC2CCN(Cc3nnnn3Cc3cccs3)CC2)cc(OC)c1OC`: the AC50 is 7.31 µM [rising, partial curve, poor fit] under setting [1] and 3.26 µM [rising, partial curve] under setting [2]. For the molecule `Cc1cccc(OCC(=O)N(Cc2cccs2)C2CCS(=O)(=O)C2)c1C` (stereo not drawn), under setting [1], the AC50 is 0.651 µM [rising, single point]. Take `O=C(O)C1Sc2[nH]c(=O)sc2C2c3ccc(O)cc3OC(=O)C12` (stereo not drawn): the cell number change came out at 1.78%. Further, the AC50 under setting [2] was 0.82 µM [falling, full curve]. `O=C1c2ccccc2C(=O)N1Cc1nn2c(-c3ccc(Cl)cc3)nnc2s1`: the cell number change is -4.83%. Further, the AC50 under setting [2] was 1.3 µM [rising, full curve, poor fit]. On to `CCOC(=O)Cc1csc(NC(=O)COc2ccc(N(C)S(=O)(=O)c3ccc(C)cc3)cc2)n1`, for which the cell number change was -5.16%. Besides, the AC50 under setting [2] is 8.2 µM [falling, partial curve]. As for `C=CCn1c(SCC(C)=O)nc2scc(-c3ccc(C)o3)c2c1=O`, the cell number change was -38.1%. The AC50 under setting [1] was 13 µM [falling, partial curve, poor fit]. With `Cc1cccc(NC(=O)COc2ccc(/C=C\c3[nH]c(=O)[nH]c(=O)c3[N+](=O)[O-])cc2)c1`, the cell number change is -27.4%. Also, the AC50 under setting [2] is 20.6 µM [falling, single point]. Regarding `COc1cccc(-c2noc(C(C)n3nc(C)c([N+](=O)[O-])c3C)n2)c1` (stereo not drawn), the cell number change was -20.1%.

Take `CN(CC(=O)Nc1ccccc1Br)C(=O)c1sccc1-c1ccccc1`: the cell number change came out at 8.7%. Under setting [1], the AC50 was 0.461 µM [rising, full curve, poor fit].
